Measured values taken from patent publication US20060218667A1 (published 2006).

Amino acid sequences for entries named in this document (tags omitted). Residues count along the entry.
UniProt P00761, 9-231 limits assumed: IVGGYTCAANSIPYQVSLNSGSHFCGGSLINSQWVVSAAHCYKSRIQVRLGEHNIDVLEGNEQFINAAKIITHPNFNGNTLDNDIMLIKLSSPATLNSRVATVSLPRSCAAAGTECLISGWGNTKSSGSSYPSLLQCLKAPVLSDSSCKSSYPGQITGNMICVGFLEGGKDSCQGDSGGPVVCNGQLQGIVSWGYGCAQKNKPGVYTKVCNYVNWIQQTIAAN

B1: r-Aprotinin-M (aprotinin variant with Met 52 deleted) (other)
chain: MGKMASLFATFLVVLVSLSLASESSARPDFCLEPPYTGPCKARIIRYFYNAAGLCQT
B2: Trasylol aprotinin (bovine lung-derived aprotinin, Bayer) (other)
chain: MGKMASLFATFLVVLVSLSLASESSARPDFCLEPPYTGPCKARIIRYFYNAKAGLCQT
modifications: Met 52 partly oxidized (5.7% by RP-HPLC); also minor C-terminally truncated (-Ala, -Gly-Ala) and derivatized species
B3: plant-produced recombinant bovine aprotinin (r-Aprotinin), product of pLSB2602 (other)
chain: B2 chain
modifications: Met 52 partly oxidized (12.4% oxidized r-Aprotinin by RP-HPLC in lot 040413LYF); disulfides Cys5-Cys55, Cys14-Cys38, Cys30-Cys51

The binders below were run against porcine trypsin (porcine, UniProt P00761 9-231) (assay: cell-based or functional assay).

| Binder | KIU/mg Protein (specific activity) [KIU/mg protein] |
| --- | --- |
| B1 | 6850 |
| B2 | 7120 |
| B3 | 7200 |
